Where two headings read alike, the source gives them in different places. No constants are given. Whether binding was seen depends on the method and setting. Binding seen in cells or lysates may run through a third protein. Some entries that bind do so weakly or less than the wild type. Tags and fused reporters may be left off the sequences shown.
Key:
[1] = biological target: T1, Ldm1-GFP (Lipid Droplet Motility 1 / Yer085c, C-terminally GFP-tagged, TEF2 promoter) (S. cerevisiae) (UniProt P40058); test: co-IP
T1 sequence: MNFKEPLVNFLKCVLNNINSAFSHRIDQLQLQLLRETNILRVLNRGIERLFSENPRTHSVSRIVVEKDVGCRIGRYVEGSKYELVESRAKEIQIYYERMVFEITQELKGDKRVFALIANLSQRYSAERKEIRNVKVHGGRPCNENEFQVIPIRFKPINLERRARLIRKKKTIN

[2] = biological target: T1, Ldm1-GFP (Lipid Droplet Motility 1 / Yer085c, C-terminally GFP-tagged, TEF2 promoter) (S. cerevisiae); test: co-IP; remark: listed apart in the source
[3] = biological target: T2, GST-tagged Ldm1 (S. cerevisiae) (UniProt P40058); test: pull-down
T2 sequence: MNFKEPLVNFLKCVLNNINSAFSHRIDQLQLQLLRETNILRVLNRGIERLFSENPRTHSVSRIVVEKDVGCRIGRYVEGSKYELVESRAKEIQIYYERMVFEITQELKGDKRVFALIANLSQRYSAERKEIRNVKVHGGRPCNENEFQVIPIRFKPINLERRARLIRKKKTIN

For Myo2-3xHA (from UniProt P19524 1-1574), the binding [1] was “binds”.

B1: Ldo16 (LD surface protein) (protein, UniProt P40219 1-148)
chain: MVSTATFFFFVYLTLFVVIGFFSSLFIIPLLGISFVFAIGVVSFGFCSNMSFKMAQLIYVRADAFLKKVLDKMALQTQPAQLQEPQEPLSTLRPVSNPTIPSPLRQTARPSKFVTEEDVIFEPVSAQSAIARSLETTANKAGNKFQLS
For B1, the binding [2] was “binds”.

B2: GFP-Myo2-GTD(1113-1574) (domain or fragment, UniProt P19524 1113-1574)
chain: MMLENSDLSPNDLNLKSRSTPSSGNNHIDSLSVDRENGVNATQINEELYRLLEDTEILNQEITEGLLKGFEVPDAGVAIQLSKRDVVYPARILIIVLSEMWRFGLTKQSESFLAQVLTTIQKVVTQLKGNDLIPSGVFWLANVRELYSFVVFALNSILTEETFKNGMTDEEYKEYVSLVTELKDDFEALSYNIYNIWLKKLQKQLQKKAINAVVISESLPGFSAGETSGFLNKIFANTEEYTMDDILTFFNSIYWCMKSFHIENEVFHAVVTTLLNYVDAICFNELIMKRNFLSWKRGLQLNYNVTRLEEWCKTHGLTDGTECLQHLIQTAKLLQVRKYTIEDIDILRGICYSLTPAQLQKLISQYQVADYESPIPQEILRYVADIVKKEAALSSSGNDSKGHEHSSSIFITPETGPFTDPFSLIKTRKFDQVEAYIPAWLSLPSTKRIVDLVAQQVVQDGH
For B2, the binding [3] was “binds”.

Source: paper doi:10.1101/2025.02.21.639583
